Some results were stated once for a whole list of compounds, not compound by compound.
Assays:
Alternaria brassicae = test: In vivo test on Alternaria brassicae (leaf spot of crucifers), radish plants; settings: 330 ppm, preventive spray on radish plants, grading 6 to 7 days after contamination, versus control plants
Procedure: The active ingredient tested is prepared by potter homogenisation in a concentrated suspension type formulation at 100 g/l. […] Radish plants (Pernot variety) in starter cups, sown on a 50/50 peat soil-pozzolana substrate and grown at 18-20° C., are treated at the cotyledon stage by spraying with the aqueous suspension described above. Plants, used as controls, are treated with an aqueous solution not containing the active material. After 24 hours, the plants are contaminated by spraying them with an aqueous suspension of Alternaria brassicae spores (40,000 spores per cm^3). The spores are collected from a 12 to 13 days-old culture. The contaminated radish plants are incubated for 6-7 days at about 18° C., under a humid atmosphere. Grading is carried out 6 to 7 days after the contamination, in comparison with the control plants. Under these conditions, good (at least 50%) or total protection is observed at a dose of 330 ppm with the following compounds: 1, 2, 3 and 4.

Pyrenophora teres = test: In vivo test on Pyrenophora teres (barley net blotch), barley plants; settings: 330 ppm, preventive spray on barley plants, grading 12 days after contamination, versus control plants

| SMILES | protection (good, at least 50%, or total) (Alternaria brassicae) | protection (good, at least 50%, or total) (Pyrenophora teres) |
| --- | --- | --- |
| O=C(NCCc1c(F)c(F)nc(F)c1F)c1ccccc1C(F)(F)F [Compound 4, N-[2-(2,3,5,6-tetrafluoro-4-pyridinyl)ethyl]-2-(trifluoromethyl)benzamide] | at least 50% | at least 50% |
| Cc1cc(CCNC(=O)c2ccccc2)c(Cl)cn1 [Compound 2] | at least 50% |  |
| O=C(NCCc1cc(F)ncc1F)c1ccccc1C(F)(F)F [Compound 3] | at least 50% | at least 50% |
| Cc1cc(CCNC(=O)c2ccccc2C(F)(F)F)c(Cl)cn1 [Compound 1] | at least 50% |  |

From patent US20070249690A1, “N-[2-(4-Pyridinyl)Ethyl]Benzamide Derivatives as Fungicides” (priority 2004, published 2007)
